For experiment [1], the target named is MET 25-928H (human) (UniProt P08581). The experiment can be described thus: native agarose gel electrophoresis, equimolar HGF/SF and MET 25-928H (4x10^-6 M), with or without heparin.
Experiment [2] shares this target. The experiment can be described thus: solid phase assay, MET928H coated at 2x10^-8 M, HGF/SF detected with sheep anti-HGF/SF and HRP anti-sheep.
The target is the same in experiment [3]. Nature of the experiment: velocity sedimentation (analytical ultracentrifugation) with heparin; compatible only with a 1:1:1 complex; binary complex without heparin called unstable in solution.
In experiment [4] the target is T1, recombinant single chain HGF/SF (R494E) (human, UniProt P14210 32-728).
T1 construct: also called single chain (R494E) HGF/SF
Nature of the experiment: solid phase assay, single chain (R494E) HGF/SF coated, dimeric MET detected with HRP anti-human IgG.

Protein sequences, listed by entry. Tags and fused reporters are not part of them. Lines headed by an entry give the natural chain unless they say otherwise; changes in a name come on top.
UniProt P14210: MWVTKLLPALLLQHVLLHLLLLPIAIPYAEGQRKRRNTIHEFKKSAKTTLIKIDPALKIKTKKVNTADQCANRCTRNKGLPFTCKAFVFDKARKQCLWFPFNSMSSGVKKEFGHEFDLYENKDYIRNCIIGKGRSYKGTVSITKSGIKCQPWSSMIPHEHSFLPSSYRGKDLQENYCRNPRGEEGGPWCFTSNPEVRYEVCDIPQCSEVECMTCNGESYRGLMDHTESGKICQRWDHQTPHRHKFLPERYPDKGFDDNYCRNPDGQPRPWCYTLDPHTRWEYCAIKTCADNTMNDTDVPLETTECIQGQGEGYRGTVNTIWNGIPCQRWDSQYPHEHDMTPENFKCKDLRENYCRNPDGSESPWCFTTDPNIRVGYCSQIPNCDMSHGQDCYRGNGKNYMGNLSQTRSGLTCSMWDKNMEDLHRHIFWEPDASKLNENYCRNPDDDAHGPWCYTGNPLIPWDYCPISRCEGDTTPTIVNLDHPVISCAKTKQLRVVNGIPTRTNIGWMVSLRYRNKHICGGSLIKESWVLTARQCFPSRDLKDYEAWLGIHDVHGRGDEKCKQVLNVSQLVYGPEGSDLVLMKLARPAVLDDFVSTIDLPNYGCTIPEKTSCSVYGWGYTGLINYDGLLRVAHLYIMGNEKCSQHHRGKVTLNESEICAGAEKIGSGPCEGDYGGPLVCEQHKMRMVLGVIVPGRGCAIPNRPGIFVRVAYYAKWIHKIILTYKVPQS

Experiment [5] concerns the target MET 25-928H (human) (UniProt P08581). Nature of the experiment: ELISA, MET928H coated on HisGrab or Maxisorp plates, streptavidin peroxidase detection.

No constants are given. Whether binding was seen depends on the method and setting. Some binding calls cover weakened binding; strength is not graded here.

For the substance “HGF/SF (from UniProt P14210 32-728) (ligand)”, the binding entry with MET 25-928H (human) [1], with MET 25-928H (human) [2] and with MET 25-928H (human) [3] was “binds” throughout.
For “MET 25-567GH (from UniProt P08581 25-307; P08581 308-567) (Fc fusion)”, the binding entry in experiment [4] is on record as “binds”.
The same measure, in the same setting: in the case of “MET 25-519GH (from UniProt P08581 25-307; P08581 308-519) (Fc fusion)” it was “binds”.
In the case of “biotinylated HGF/SF (from UniProt P14210 32-728) (ligand)”, in the experiment with MET 25-928H (human) [5], the binding entry is given as “binds”.

These data come from US7741051B2, “Soluble ectodomain fragments of MET and uses thereof” (Medical Research Council, priority 2003, dated 2010).
